Experimental data as given in PubChem BioAssay AID1671190 (National Center for Advancing Translational Sciences (NCATS), 2021).
The whole screen tested about 580,000 compounds, of which about 6,100 (1.1%) were called active. The shares of active, inactive and inconclusive entries below differ from those in the screen. Calls come from the whole dose curve; as a rule, active = well fitted inhibition curve with a large enough effect; inconclusive = small, poorly fitted or top-dose-only effect, or another doubt; inactive = no such curve, though single readings can be large or run the other way. A potency beside an inconclusive call is a rough fit, not a confirmed value.

Amino acid sequences for entries named in this document (tags omitted). A change or cut given only in a name is not applied to a line headed by its entry.
UniProt P18054: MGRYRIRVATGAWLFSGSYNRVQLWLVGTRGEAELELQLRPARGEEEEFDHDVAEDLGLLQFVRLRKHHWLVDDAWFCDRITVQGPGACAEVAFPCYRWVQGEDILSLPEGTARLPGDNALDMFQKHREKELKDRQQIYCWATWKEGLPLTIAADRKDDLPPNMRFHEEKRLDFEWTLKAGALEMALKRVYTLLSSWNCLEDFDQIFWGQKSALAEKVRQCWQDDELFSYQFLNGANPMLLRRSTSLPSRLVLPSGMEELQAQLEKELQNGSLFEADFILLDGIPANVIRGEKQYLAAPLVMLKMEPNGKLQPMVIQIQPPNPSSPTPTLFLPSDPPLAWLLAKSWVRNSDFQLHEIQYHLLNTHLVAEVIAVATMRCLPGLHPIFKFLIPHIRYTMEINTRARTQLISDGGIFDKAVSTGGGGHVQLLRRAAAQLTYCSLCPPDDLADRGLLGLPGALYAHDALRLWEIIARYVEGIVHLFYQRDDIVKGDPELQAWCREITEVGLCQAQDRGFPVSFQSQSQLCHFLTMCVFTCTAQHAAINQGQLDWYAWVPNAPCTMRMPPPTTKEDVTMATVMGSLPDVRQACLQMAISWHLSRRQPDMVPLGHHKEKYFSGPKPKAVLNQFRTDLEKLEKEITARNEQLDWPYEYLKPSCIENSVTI

What follows are compounds tested against Polyunsaturated fatty acid lipoxygenase ALOX12 (Homo sapiens) (UniProt P18054) (assay: Primary qHTS assay for inhibitors of human arachidonate 12S-lipoxygenase (ALOX12): Round 2). Conditions: purified 12hLO, xylenol orange hydroperoxide absorbance; series mostly up to 108 µM.
In short: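 Purified human 12hLO at 150 nM in 25 mM Hepes, 0.01% Triton X-100, pH 7.0, preincubated 15 min at room temperature with compound. Reaction started with 40 uM arachidonic acid, 30 min at room temperature. Hydroperoxide measured by Fe-xylenol orange, 573/405 nm absorbance ratio.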
Potency is the fitted concentration of half-maximal effect.

Question: With `CC1=C(C(=O)N2CCOCC2)C(c2cccs2)NC(=O)N1` (centres undefined) as the compound, how does the Potency read?
Answer: inconclusive: 3.98 µM [inhibitor, full curve, poor fit]

Question: Which Potency does the source give for `Clc1cc2cccnc2c2ncccc12` here?
Answer: inconclusive: 79.4 µM [inhibitor, partial curve, poor fit]

Question: For `Cc1ccc2c(c1)CCCN2CC(=O)Nc1cccc(S(=O)(=O)N2CCCC2)c1`, which Potency is on record?
Answer: inconclusive: 70.8 µM [inhibitor, partial curve, poor fit]

Question: `COC(=O)c1sc(-c2ccc(C(C)(C)C)cc2)cc1NC(=O)/C=C/C(=O)O` was tested. Which Potency did it give?
Answer: inconclusive: 100 µM [inhibitor, partial curve, poor fit]

Question: How did the Potency turn out when `CCOc1ccc(S(=O)(=O)N2CCCN(C)c3ccccc32)cc1` was run?
Answer: inconclusive: 17.8 µM [inhibitor, full curve, poor fit]

Question: Which Potency does the source give for `COc1ccc(C(=O)N2N=C(c3ccccc3)CC2c2ccc3nccnc3c2)cc1` (centres undefined) here?
Answer: inactive

Question: For `O=C(c1ccc(Cl)cc1)N1CCn2c(nn(-c3ccc(Cl)cc3)c2=O)C1`, which Potency is on record?
Answer: inconclusive: 39.8 µM [inhibitor, partial curve, poor fit]

Question: For `CCOc1cc(/C=C(\CC(=O)O)c2nc3ccccc3s2)ccc1OCC(=O)Nc1cccc(C(F)(F)F)c1`, which Potency is on record?
Answer: inconclusive: 44.7 µM [inhibitor, partial curve, poor fit]

Question: Which Potency does the source give for `COc1cccc(NC(=O)Nc2nnc(N3CCCCC3C)s2)c1` (centres undefined) here?
Answer: inconclusive: 89.1 µM [inhibitor, partial curve, poor fit]

Question: How did the Potency turn out when `O=C(CC1(O)C(=O)N(Cc2ccccc2Cl)c2ccccc21)c1ccco1` (centres undefined) was run?
Answer: inconclusive: 44.7 µM [inhibitor, partial curve, poor fit]

Question: How did the Potency turn out when `N#CC(C#N)=c1ccc2c(c1)N1C3=C(CCCC3)CC3CCCCC31N=2` (centres undefined) was run?
Answer: inactive

Question: `C=CCN1C(=O)c2oc3ccccc3c(=O)c2C1c1ccc(O)c(OC)c1` (centres undefined) was tested. Which Potency did it give?
Answer: inconclusive: 39.8 µM [inhibitor, single point]

Question: `Cc1ccc(CN(C)C(=O)CC(c2ccccc2)c2ccc3c(c2)OCO3)o1` (centres undefined) was tested. Which Potency did it give?
Answer: inconclusive: 63.1 µM [inhibitor, partial curve, poor fit]

Question: Which Potency does the source give for `N#Cc1ccc(OC(=O)Cc2ccc(F)cc2)cc1` here?
Answer: inactive

Question: Which Potency does the source give for `COc1cccc(OC)c1OCCCOc1ccc([N+](=O)[O-])cc1Cl` here?
Answer: inactive

Question: For `Cc1ccc(S(=O)(=O)NCC2CCC(C(=O)NCCCOC(C)C)CC2)cc1` (centres undefined), which Potency is on record?
Answer: inconclusive: 89.1 µM [inhibitor, partial curve, poor fit]

Question: Which Potency does the source give for `O=C(NCCOc1ccccc1)c1n[nH]c(=O)c2ccccc12` here?
Answer: inactive

Question: How did the Potency turn out when `Cc1cn2c(-c3ccccc3F)nc(=S)nc2s1` was run?
Answer: inactive

Question: `COc1ccc(C)cc1Nc1nc(N)c(C(=O)c2cccc(Br)c2)s1` was tested. Which Potency did it give?
Answer: inactive

Question: For `COc1ccc(NC(=O)c2ccco2)cc1NC(=O)c1ccccc1F`, which Potency is on record?
Answer: inactive

Question: Which Potency does the source give for `CCCCNc1nc2ccccc2c2nc(-c3ccccc3)nn12` here?
Answer: inconclusive: 100 µM [inhibitor, partial curve, poor fit]

Question: For `COc1cc(NS(=O)(=O)c2ccc(N/C=C\C(=O)c3ccc(F)cc3)cc2)nc(OC)n1`, which Potency is on record?
Answer: inconclusive: 112 µM [inhibitor, partial curve, poor fit]

Question: With `C/C(=N\O)c1cc2cc(Br)cc(Br)c2oc1=O` as the compound, how does the Potency read?
Answer: inconclusive: 5.01 µM [inhibitor, full curve, poor fit]

Question: Which Potency does the source give for `C[N+](C)(N)Cc1ccccc1` here?
Answer: inconclusive: 56.2 µM [inhibitor, single point]

Question: For `CCN(Cc1ccccc1)c1ccc(/C=N/NC(=S)NC(C)C)cc1`, which Potency is on record?
Answer: active: 44.7 µM

Question: With `Cn1cc(Cl)c(/C=C(\C#N)S(=O)(=O)c2ccccc2)n1` as the compound, how does the Potency read?
Answer: inconclusive: 126 µM [inhibitor, single point]

Question: Which Potency does the source give for `CCCOc1ccc(C2C(C(=O)c3ccc(C)o3)=C(O)C(=O)N2CCN2CCOCC2)cc1OC` (centres undefined) here?
Answer: inconclusive: 5.62 µM [inhibitor, full curve, poor fit]

Question: For `CCOC(=O)Cc1c(C)nc2c(-c3ccccc3)c[nH]n2c1=O`, which Potency is on record?
Answer: inconclusive: 50.1 µM [inhibitor, single point]

Question: How did the Potency turn out when `CCCCNCCOc1ccccc1-c1ccccc1` was run?
Answer: inconclusive: 0.501 µM [inhibitor, full curve, poor fit]

Question: With `Cc1cnn(C(=O)Cn2nc(C(F)F)c(Br)c2C)c1` as the compound, how does the Potency read?
Answer: inconclusive: 50.1 µM [inhibitor, partial curve, poor fit]

Question: `Cc1o[nH]c(=O)c1CC[C@H](N)C(=O)O` was tested. Which Potency did it give?
Answer: inconclusive: 2 µM [inhibitor, full curve, poor fit]

Question: `CCCC(=O)NC(=S)Nc1ccc(N2CCN(C(=O)c3cccs3)CC2)cc1` was tested. Which Potency did it give?
Answer: inactive

Question: For `O=C(O)C1CCCN1c1ncnc2ccccc12` (centres undefined), which Potency is on record?
Answer: inconclusive: 10 µM [inhibitor, full curve]

Question: Which Potency does the source give for `O=C(Nc1ccccn1)c1cc(-c2ccco2)nc2ccccc12` here?
Answer: active: 39.8 µM

Question: `COc1ccc(S(=O)(=O)N2CCN(C(=O)CCNC(=O)c3ccccc3Cl)CC2)cc1` was tested. Which Potency did it give?
Answer: inconclusive: 112 µM [inhibitor, single point]

Question: For `O=C(NNc1ccccc1[N+](=O)[O-])Nc1cccc(Cl)c1`, which Potency is on record?
Answer: inconclusive: 44.7 µM [inhibitor, partial curve, poor fit]

Question: How did the Potency turn out when `Cc1[nH]c(=O)[nH]c(=O)c1S(=O)(=O)Nc1ccccc1Cl` was run?
Answer: inactive

Question: Which Potency does the source give for `NC(=O)CC(NC(=O)c1ccc(Br)cc1)c1ccc(N2CCC(Cc3ccccc3)CC2)c([N+](=O)[O-])c1` (centres undefined) here?
Answer: inconclusive: 44.7 µM [inhibitor, partial curve, poor fit]

Question: `Cc1[nH]c2ccccc2c1C1=NNC(=Nc2ccc(F)cc2)SC1` was tested. Which Potency did it give?
Answer: inconclusive: 50.1 µM [inhibitor, partial curve, poor fit]

Question: With `NC(=O)COC(=O)c1cc(-c2ccco2)nc2ccccc12` as the compound, how does the Potency read?
Answer: active: 28.2 µM

Question: With `CC(C)c1ccc2cc(C(=O)NCC3CCS(=O)(=O)C3)[nH]c2c1` (centres undefined) as the compound, how does the Potency read?
Answer: inactive

Question: Which Potency does the source give for `O=C1CN(C(=O)c2ccccc2[N+](=O)[O-])C(c2ccccc2)c2cc(Br)ccc2N1` (centres undefined) here?
Answer: inactive

Question: `CCOC(=O)c1c(NC(=O)CCC(=O)N(CC)CC)sc2c1CC(C)(C)OC2` was tested. Which Potency did it give?
Answer: inactive

Question: With `CC(C)CNC(=S)Nc1ccc(Oc2ccccc2)cc1` as the compound, how does the Potency read?
Answer: inconclusive: 44.7 µM [inhibitor, partial curve, poor fit]
